Melting point data for one compound are collected here from patent US10875860B2, “Azaindenoisoquinoline compounds and uses thereof” (Purdue Research Foundation, priority 2016, dated 2020).

As a reminder, the melting point is the temperature, or range, at which the solid turns liquid.

On to `COc1cnc2c(c1)C(=O)c1c-2n(CCCN2CCCC2)c(=O)c2cc(Cl)ccc12` [Compound 16i, 3-Chloro-9-methoxy-6-(3-(pyrrolidin-1-yl)propyl)-5H-pyrido[3′,2′:4,5]cyclopenta[1,2-c]isoquinoline-5,11(6H)-dione], for which the melting point lay within 242 to 244 °C.
